Results deposited as PubChem BioAssay AID1259308 (NCATS, 2017).

Aim: 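Candidate targets for better recombinant protein yield in mammalian cells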 (primary screen)
System: human HEK293 embryonic kidney cells stably expressing firefly luciferase (HEK-CMV-Luc2-Hygro)
Reagents: single siRNA against human genes, 0.8 pmol siRNA per well
Timing: 72 h
Detection: 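Luciferase light (ONE-Glo) measured on one replicate plate set and viability (CellTiter-Glo) on the other, scaled to a negative control siRNA, with robust z-scores and luciferase per cell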
Scale: total luciferase, z-score: higher = more reporter protein produced
Hit rule: 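An siRNA counts as active if its total luciferase robust z-score exceeds 3; genes with two or more such siRNAs out of three were retested with fresh siRNAs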
Calls: active = raised luciferase; inactive = no rise
The deposit covers about 59,000 reagents; shown is an unselected part. Of all reagents, about 1,510 (2.6%) are marked active. 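Calls use total luciferase alone and ignore viability, so some active siRNAs may act by altering cell number.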 A number with no mark means an inactive call. The numbers tell different reagents against one gene apart. Not all columns of the deposit are shown.

no.	Target gene	reagent	total luciferase, z-score
1	OR5A2 (olfactory receptor family 5 subfamily A member 2)	1	0.501
2	OR5A2 (olfactory receptor family 5 subfamily A member 2)	2	0.0905
3	OR5A2 (olfactory receptor family 5 subfamily A member 2)	3	-1.61
4	B4GALT7 (beta-1,4-galactosyltransferase 7)	1	-2.33
5	B4GALT7 (beta-1,4-galactosyltransferase 7)	2	-0.158
6	B4GALT7 (beta-1,4-galactosyltransferase 7)	3	1.03
7	HMGN2P20	1	0.637
8	HMGN2P20	2	0.0588
9	HMGN2P20	3	0.389
10	CDH10 (cadherin 10)	1	0.842
11	CDH10 (cadherin 10)	2	-0.0262
12	CDH10 (cadherin 10)	3	-1.37
13	KRT10 (keratin 10)	1	0.121
14	KRT10 (keratin 10)	2	-0.866
15	KRT10 (keratin 10)	3	0.689
16	HORMAD1 (HORMA domain containing 1)	1	1.81
17	HORMAD1 (HORMA domain containing 1)	2	1.38
18	HORMAD1 (HORMA domain containing 1)	3	-2.91
19	GNLY (granulysin)	1	0.42
20	GNLY (granulysin)	2	1.35
21	GNLY (granulysin)	3	0.85
22	EXOSC7 (exosome component 7)	1	0.656
23	EXOSC7 (exosome component 7)	2	-0.775
24	EXOSC7 (exosome component 7)	3	-0.355
25	PSTPIP2 (proline-serine-threonine phosphatase interacting protein 2)	1	-0.2
26	PSTPIP2 (proline-serine-threonine phosphatase interacting protein 2)	2	-0.129
27	PSTPIP2 (proline-serine-threonine phosphatase interacting protein 2)	3	1.45
28	PRAP1 (proline rich acidic protein 1)	1	0.24
29	PRAP1 (proline rich acidic protein 1)	2	0.59
30	PRAP1 (proline rich acidic protein 1)	3	2.43
31	DOCK8-AS1 (DOCK8 antisense RNA 1)	1	0.163
32	DOCK8-AS1 (DOCK8 antisense RNA 1)	2	2.22
33	DOCK8-AS1 (DOCK8 antisense RNA 1)	3	-0.0594
34	ASCL1 (achaete-scute family bHLH transcription factor 1)	1	1.39
35	ASCL1 (achaete-scute family bHLH transcription factor 1)	2	0.702
36	ASCL1 (achaete-scute family bHLH transcription factor 1)	3	-0.744
37	PIGU (phosphatidylinositol glycan anchor biosynthesis class U)	1	2.3
38	PIGU (phosphatidylinositol glycan anchor biosynthesis class U)	2	0.609
39	PIGU (phosphatidylinositol glycan anchor biosynthesis class U)	3	-0.622
